According to PubChem BioAssay AID445 (National Center for Advancing Translational Sciences (NCATS), 2006):
The list shows a part of the results. The main result of the screen is listed elsewhere. These columns were measured beside it and carry no call. The list favours compounds with an active or inconclusive main result. The note in brackets gives the kind of curve behind each potency; many fits are weak.

Assay: IkB Signaling
Details: ABC-DLBCL IkBa-CBG/CBR dual luciferase ratio (green luciferase fused to IkBa over red control in OCI-Ly3 lymphoma cells), 4 h; measured here: control luc red channel unless noted
Outline: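 Curves were fitted separately to fusion (green), unfused (red) and ratio luminescence, then classed by r2, magnitude and activity. Cells: OCI-Ly3, 4 h compound plus doxycycline at 37C; 10 uM MG-132 defined full response.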
With `Cc1cccc(C)c1NC(=O)CN(Cc1ccc(Br)cc1)S(=O)(=O)c1ccccc1` the AC50 was 15.8 µM [falling, partial curve]. In the case of `CCOC(=O)c1ccc(NS(=O)(=O)c2ccc3c(c2)OCCO3)cc1`, the AC50 is reported as 31.6 µM [falling, single point]. In the case of `O=C(Nc1ccc(Cl)c(C(F)(F)F)c1)c1ccc2c(c1)CCN2S(=O)(=O)c1ccccc1`, the AC50 is reported as 0.158 µM [rising, full curve]. In the case of `CC(=O)Nc1nc(C)c(-c2csc(Nc3ccc(O)cc3)n2)s1`, the AC50 is reported as 25.1 µM [falling, partial curve]. In the case of `Cc1ccccc1Cn1nnc2c(=O)[nH]c(C3CCN(C(=O)c4ccccc4Cl)CC3)nc21`, the AC50 is reported as 39.8 µM [falling, single point]. With `Cc1ccc(-n2ncc(C(=O)NCc3ccccn3)c2C2CCN(C(=O)OC(C)(C)C)CC2)c(C)c1` the AC50 was 12.6 µM [falling, partial curve]. In the case of `CCC1CN(C(=O)NCc2ccccc2)c2cc(C)ccc2O1` (configuration not stated), the AC50 is reported as 10 µM [falling, partial curve]. In the case of `CCOC(=O)c1cc2c(=O)n3ccccc3nc2n(C)c1=NC(=O)c1c(-c2ccccc2Cl)noc1C`, the AC50 is reported as 15.8 µM [falling, partial curve, poor fit]. In the case of `O=C(Nc1ccc(F)cc1F)c1ccc2c(c1)CCN2S(=O)(=O)c1ccc(Cl)cc1`, the AC50 is reported as 20 µM [falling, single point]. For `CN1C(=O)CC(C(=O)Nc2ccc(F)cc2)SC1=Nc1ccc2c(c1)OCO2` (configuration not stated), the AC50 was 25.1 µM [falling, single point]. With `COc1ccc2oc(=O)c(C(=O)Nc3cccc(C(=O)O)c3)cc2c1` the AC50 was 1.26 µM [falling, full curve]. With `CC(C)(c1cc(Br)c(O)c(Br)c1)c1cc(Br)c(O)c(Br)c1` the AC50 was 39.8 µM [rising, single point] [measured here: IkB-luc green channel]. In the case of `CCN(CC)S(=O)(=O)c1cc(C(=O)OCC(=O)c2ccc3c(c2)NC(=O)CO3)ccc1F`, the AC50 is reported as 20 µM [falling, partial curve]. With `COc1cc(-c2cc3n(C)c(C)c(CCC(=O)NCc4ccccc4)c(=O)n3n2)cc(OC)c1OC` the AC50 was 31.6 µM [falling, single point]. For `COc1ccc(OC)c(CCNC(=O)Cn2ccc3cc(S(=O)(=O)N4CCCCC4)ccc32)c1`, the AC50 was 31.6 µM [falling, partial curve]. For `CCOC(=O)c1cc(OC(=O)c2ccc(OC)cc2)n(-c2ccccc2)n1`, the AC50 was 39.8 µM [falling, single point]. For `COc1ccccc1-c1cc2nc(C)c(CCC(=O)NCCc3ccc(SC)cc3)c(C)n2n1`, the AC50 was 0.398 µM [falling, full curve]. With `Cc1ccc(C)c(CNC(=O)c2ccc3c(c2)nc2n3CCC(C)C2)c1` (configuration not stated) the AC50 was 39.8 µM [falling, partial curve, poor fit]. With `COc1cccc(Nc2ncc3nc(-c4cccs4)c(=O)n(C[C@H]4CCCO4)c3n2)c1` the AC50 was 2 µM [falling, partial curve] [measured here: IkB-luc green channel]. For `CCn1c(COc2cccc(C)c2)nnc1SCC(=O)Nc1cccc(C(=O)OC)c1`, the AC50 was 15.8 µM [falling, partial curve]. With `O=C(OCc1cc(=O)n2nc(-c3cccs3)sc2n1)c1ccccc1` the AC50 was 39.8 µM [falling, single point]. With `O=C1c2oc3ccccc3c(=O)c2C(c2ccc(O)cc2)N1Cc1ccc2c(c1)OCO2` (configuration not stated) the AC50 was 0.126 µM [rising, full curve]. With `O=C(c1ccc(Cl)cc1)N1CCC(c2nc3ccccc3o2)CC1` the AC50 was 20 µM [falling, single point]. In the case of `CCOc1ccc(NC(=O)c2c(NCc3ccc(C)o3)sc3c2CCCCC3)cc1`, the AC50 is reported as 25.1 µM [falling, partial curve]. In the case of `Cc1ccc(CSC2=Nc3ccccc3C3=NC(CC(=O)NCc4cccs4)C(=O)N23)c(C)c1` (configuration not stated), the AC50 is reported as 25.1 µM [falling, partial curve]. With `COCCn1c(C)cc(C(=O)COC(=O)c2c(C)nn(Cc3ccccc3)c2C)c1C` the AC50 was 31.6 µM [falling, partial curve]. With `O=C(Nc1ccc2nc(SCCOc3ccccc3)sc2c1)c1ccccc1F` the AC50 was 0.631 µM [falling, full curve]. In the case of `Cc1ccc(-c2ccc(=O)n(CC(=O)NCCc3ccc(Cl)cc3)n2)cc1`, the AC50 is reported as 15.8 µM [falling, partial curve]. In the case of `COc1ccc(NC(=O)c2c(NCc3cccs3)sc3c2CCCC3)c(OC)c1`, the AC50 is reported as 0.00794 µM [falling, full curve]. In the case of `COc1ccc(NC(=O)c2oc3ccccc3c2NC(=O)Cc2coc3cc(C)ccc23)cc1`, the AC50 is reported as 3.98 µM [falling, partial curve]. For `N#CC1=C(SCC(=O)NC23CC4CC(CC(C4)C2)C3)NC(=O)C(C#N)C12CCCCC2` (configuration not stated), the AC50 was 15.8 µM [falling, partial curve]. In the case of `COc1ccc(C)cc1NC(=O)CCNC(=O)Cn1ccc2ccccc2c1=O`, the AC50 is reported as 7.94 µM [falling, full curve, poor fit]. In the case of `CN1C(=O)Cc2cc(S(=O)(=O)CCC(=O)Nc3ccc(Cl)c(C(F)(F)F)c3)ccc21`, the AC50 is reported as 39.8 µM [falling, partial curve]. For `COc1ccc(C2=C(C)C(=NCCCN3CCN(c4cc(Cl)ccc4C)CC3)NS2(=O)=O)cc1`, the AC50 was 10 µM [falling, partial curve]. For `COc1ccc(-n2ncc(C(=O)Nc3ccc4c(c3)OCO4)c2C2CCN(C(=O)OC(C)(C)C)CC2)cc1`, the AC50 was 25.1 µM [falling, partial curve]. In the case of `COc1ccc2oc(-c3ccc(C)c(NC(=O)c4ccc5c(c4)OCCO5)c3)nc2c1`, the AC50 is reported as 3.16 µM [falling, full curve]. For `CN1/C(=C\C(=O)c2cccs2)Sc2ccccc21`, the AC50 was 15.8 µM [falling, single point]. For `Cn1c(-c2ccccc2)cnc1NCc1ccccc1O`, the AC50 was 31.6 µM [falling, single point]. With `O=C(NCc1ccccc1Br)c1ccc2c(c1)nc1n2CCOC1` the AC50 was 5.01 µM [rising, full curve, poor fit]. With `CCCNC(=O)COCc1cc(-c2ccc(F)cc2)on1` the AC50 was 12.6 µM [falling, partial curve, poor fit]. With `O=C(NCc1ccco1)c1cccn2c(=O)c3sccc3nc12` the AC50 was 15.8 µM [falling, partial curve]. With `Cc1cc(NC(=O)CCS(=O)(=O)c2nc(-c3ccccc3)cc(C(F)(F)F)n2)no1` the AC50 was 3.98 µM [falling, full curve]. For `O=C(Nc1cccc2ncccc12)c1cc2ccccc2o1`, the AC50 was 31.6 µM [falling, partial curve]. In the case of `c1ccc(Nc2nc(-c3ccncc3)cs2)nc1`, the AC50 is reported as 10 µM [falling, partial curve]. For `CCOC(=O)C1CCCN(c2c(C(=O)c3ccc(OCC)cc3)cnc3ccccc23)C1` (configuration not stated), the AC50 was 15.8 µM [falling, partial curve]. In the case of `O=S(=O)(c1cccc2nsnc12)N1CCN(c2ncccn2)CC1`, the AC50 is reported as 3.16 µM [rising, full curve, poor fit]. For `COc1ccc(NC(=O)c2cc3c(=O)n(Cc4cccs4)ccc3nc2C)cc1`, the AC50 was 20 µM [falling, partial curve]. For `Cc1ccc(NC(=O)c2c(NC(=O)c3ccc(F)cc3)sc3c2CCCC3)cc1C`, the AC50 was 0.501 µM [falling, full curve]. With `CCNc1nc(C)c2cc(Br)c(=O)n(CC)c2n1` the AC50 was 2.51 µM [rising, full curve]. In the case of `CCOC(=O)c1c(C)oc2nc(C)nc(N3CCN(c4cc(Cl)ccc4C)CC3)c12`, the AC50 is reported as 5.01 µM [falling, partial curve]. For `CCOC(=O)c1cc(OC(=O)c2cc(OC)c(OC)c(OC)c2)n(-c2ccccc2)n1`, the AC50 was 39.8 µM [falling, single point]. In the case of `O=C(Cn1nc(-c2ccccc2)c2c(c1=O)CCCC2)Nc1ccc(F)c(Cl)c1`, the AC50 is reported as 7.94 µM [falling, partial curve]. For `Cc1ccccc1NS(=O)(=O)c1ccc2[nH]cc(C(=O)NC3CCCCC3)c(=O)c2c1`, the AC50 was 20 µM [falling, single point]. In the case of `CCn1c(=O)c2cc(C(=O)NC3CCC(C)CC3)sc2c2ccccc21` (configuration not stated), the AC50 is reported as 3.98 µM [falling, partial curve]. For `COc1ccccc1C(=O)Nc1ccc(C(=O)O)cc1`, the AC50 was 1.58 µM [falling, full curve]. With `Cc1cc(=O)[nH]c(SCC(=O)N2CCN(C(c3ccccc3)c3ccccc3)CC2)n1` the AC50 was 39.8 µM [falling, partial curve]. In the case of `O=S1(=O)c2cccc3cccc(c23)N1Cc1ccc(-c2nnco2)cc1`, the AC50 is reported as 15.8 µM [falling, partial curve]. In the case of `COc1ccccc1CNC(=O)CCCn1c(=O)c2ccccc2n(Cc2ccc(F)cc2)c1=O`, the AC50 is reported as 0.316 µM [falling, full curve, poor fit]. For `COc1ccccc1Nc1nc(-c2ccc(F)cc2)c2c(n1)-c1ccccc1OC2`, the AC50 was 10 µM [falling, partial curve]. For `COc1ccccc1NC(=O)c1c(C)cc(C)nc1SCC(=O)Nc1ccc(C)c(C)c1`, the AC50 was 1.26 µM [falling, partial curve]. In the case of `O=C(Nc1cccc(-c2nc3cccnc3s2)c1)c1ccco1`, the AC50 is reported as 10 µM [falling, partial curve]. With `COc1ccc(C)cc1NC(=O)Cn1c(=O)oc2cc(S(=O)(=O)N3CCCCC3)ccc21` the AC50 was 0.126 µM [falling, single point].
